This series concerns HbA1c. As to the kind of experiment: Measurement of Proteinase N-digested HbA1c, 4AA/TODB/POD. Type of series: biochemical.

B1: PnFPOX: fructosyl peptidyl oxidase derived from Phaeosphaeria nodorum, amino acid sequence SEQ ID NO:1, recombinant from E. coli (protein, listed as Phaeosphaeria nodorum)
chain: MAPSRANTSVIVVGGGGTIGSSTALHLVRSGYTPSNVTVLDAYPIPSSQSAGNDLNKIMGVSLRNPVDLQLALEARQMWNEDELFKKFFHNTGRLDCAHGEKDIADLKSGYQALVDAGLDATNEWLDSEDEILKRMPLLSRDQIKGWKAIFSKDGGWLAAAKAINAVGEYLRDQGVRFGFYGAGSFKAPLLAEGVCIGVETVDGTRYYADKVVLAAGAWSPTLVELHEQCVSKAWVYGHIQLTPEEAARYKNSPVVYNGDVGFFFEPNEHGVIKVCDEFPGFTRFKMHQPFGAKAPKRISVPRSHAKHPTDTIPDASDVSIRRAIATFMPQFKNKKMFNQAMCWCTDTADAALLICEHPEWKNFVLATGDSGHSFKLLPNIGKHVVELLEGTLADDLAHAWRWRPGSGDALKSRRSAPAKDLADMPGWNHDKPRANL
As for B1, where the note is “De-heme Hb sample 300 μM digested with Proteinase N, in words”, the “FVH detection from Hb” value is “not detected”. Moreover, the FVH detected (De-heme HbA1c sample 300 μM digested with Proteinase N) amounted to 350 µM.

The values are drawn from US8962271B2, “Fructosyl peptidyl oxidase” (Roche Diagnostics Operations, Inc., priority 2009, dated 2015).
